The list shows a part of the results.
What was measured:
Assay in all cases: glycan array binding signal (z-score within array); higher = stronger binding
Details in all cases: glycan notation: IUPAC condensed, linker removed
[1] = target: Fuc(a1-2)[Gal(a1-3)]Gal(b1-4)GlcNAc(b1-2)Man(a1-3)[Fuc(a1-2)[Gal(a1-3)]Gal(b1-4)GlcNAc(b1-2)Man(a1-6)]Man(b1-4)GlcNAc(b1-4)[Fuc(a1-6)]GlcNAc
Summary of the method: (§1)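 The binding signal is a Z-score computed within each array and averaged over linkers. Arrays of the same protein sequence at different concentrations or buffers were also averaged together. Data originate from 3228 arrays in the Consortium for Functional Glycomics database, kept only where the protein sequence was available.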

[2] = target: Fuc(a1-2)[Gal(a1-3)]Gal(b1-4)GlcNAc(b1-3)GalNAc
Summary of the method: as §1

[3] = target: Fuc(a1-2)[Gal(a1-3)]Gal(b1-4)GlcNAc(b1-3)[Fuc(a1-2)[Gal(a1-3)]Gal(b1-4)GlcNAc(b1-6)]GalNAc
Summary of the method: as §1

[4] = target: Fuc(a1-2)[Gal(a1-3)]Gal(b1-4)GlcNAc(b1-6)GalNAc
Summary of the method: as §1

[5] = target: Fuc(a1-2)[Gal(a1-3)]Gal(b1-4)[Fuc(a1-3)]Glc
Summary of the method: as §1

[6] = target: Fuc(a1-2)[Gal(a1-3)]Gal(b1-4)[Fuc(a1-3)]GlcNAc
Summary of the method: as §1

[7] = target: Fuc(a1-2)[Gal(a1-3)]Gal(b1-4)[Fuc(a1-3)]GlcNAc(b1-3)GalNAc
Summary of the method: as §1

[8] = target: Fuc(a1-2)[Gal(a1-4)]Gal(b1-4)GlcNAc
Summary of the method: as §1

[9] = target: Fuc(a1-2)[GalNAc(a1-3)]Gal
Summary of the method: as §1

[10] = target: Fuc(a1-2)[GalNAc(a1-3)]Gal(b1-3)GalNAc(a1-3)[Fuc(a1-2)]Gal(b1-4)GlcNAc
Summary of the method: as §1

[11] = target: Fuc(a1-2)[GalNAc(a1-3)]Gal(b1-3)GalNAc(b1-3)Gal(a1-4)Gal(b1-4)Glc
Summary of the method: as §1

[12] = target: Fuc(a1-2)[GalNAc(a1-3)]Gal(b1-3)GlcNAc
Summary of the method: as §1

[13] = target: Fuc(a1-2)[GalNAc(a1-3)]Gal(b1-3)GlcNAc(b1-2)Man(a1-3)[Fuc(a1-2)[GalNAc(a1-3)]Gal(b1-3)GlcNAc(b1-2)Man(a1-6)]Man(b1-4)GlcNAc(b1-4)GlcNAc
Summary of the method: as §1

[14] = target: Fuc(a1-2)[GalNAc(a1-3)]Gal(b1-3)GlcNAc(b1-2)Man(a1-3)[Fuc(a1-2)[GalNAc(a1-3)]Gal(b1-3)GlcNAc(b1-2)Man(a1-6)]Man(b1-4)GlcNAc(b1-4)[Fuc(a1-6)]GlcNAc
Summary of the method: as §1

[15] = target: Fuc(a1-2)[GalNAc(a1-3)]Gal(b1-3)GlcNAc(b1-3)GalNAc
Summary of the method: as §1

[16] = target: Fuc(a1-2)[GalNAc(a1-3)]Gal(b1-3)GlcNAc(b1-6)GalNAc
Summary of the method: as §1

[17] = target: Fuc(a1-2)[GalNAc(a1-3)]Gal(b1-4)Glc
Summary of the method: as §1

[18] = target: Fuc(a1-2)[GalNAc(a1-3)]Gal(b1-4)GlcNAc
Summary of the method: as §1

[19] = target: Fuc(a1-2)[GalNAc(a1-3)]Gal(b1-4)GlcNAc(b1-2)Man
Summary of the method: as §1

[20] = target: Fuc(a1-2)[GalNAc(a1-3)]Gal(b1-4)GlcNAc(b1-2)Man(a1-3)[Fuc(a1-2)[GalNAc(a1-3)]Gal(b1-4)GlcNAc(b1-2)Man(a1-6)]Man(b1-4)GlcNAc(b1-4)GlcNAc
Summary of the method: as §1

[21] = target: Fuc(a1-2)[GalNAc(a1-3)]Gal(b1-4)GlcNAc(b1-2)Man(a1-3)[Fuc(a1-2)[GalNAc(a1-3)]Gal(b1-4)GlcNAc(b1-2)Man(a1-6)]Man(b1-4)GlcNAc(b1-4)[Fuc(a1-6)]GlcNAc
Summary of the method: as §1

[22] = target: Fuc(a1-2)[GalNAc(a1-3)]Gal(b1-4)GlcNAc(b1-3)Gal(b1-4)GlcNAc
Summary of the method: as §1

[23] = target: Fuc(a1-2)[GalNAc(a1-3)]Gal(b1-4)GlcNAc(b1-3)Gal(b1-4)GlcNAc(b1-3)Gal(b1-4)GlcNAc
Summary of the method: as §1

[24] = target: Fuc(a1-2)[GalNAc(a1-3)]Gal(b1-4)GlcNAc(b1-3)GalNAc
Summary of the method: as §1

[25] = target: Fuc(a1-2)[GalNAc(a1-3)]Gal(b1-4)GlcNAc(b1-3)[Fuc(a1-2)[GalNAc(a1-3)]Gal(b1-4)GlcNAc(b1-6)]GalNAc
Summary of the method: as §1

[26] = target: Fuc(a1-2)[GalNAc(a1-3)]Gal(b1-4)GlcNAc(b1-6)GalNAc
Summary of the method: as §1

[27] = target: Fuc(a1-2)[GalNAc(a1-3)]Gal(b1-4)[Fuc(a1-3)]GlcNAc
Summary of the method: as §1

[28] = target: Fuc(a1-2)[GalNAc(a1-3)]Gal(b1-4)[Fuc(a1-3)]GlcNAc(b1-3)GalNAc
Summary of the method: as §1

[29] = target: Fuc(a1-2)[GalNAc(a1-4)]Gal(b1-4)GlcNAc
Summary of the method: as §1

[30] = target: Fuc(a1-2)[GalNAc(b1-3)]Gal
Summary of the method: as §1

Fuc(a1-3)GlcNAc = target: Fuc(a1-3)GlcNAc
Summary of the method: as §1

[31] = target: Fuc(a1-3)[Gal(b1-4)]Glc6S
Summary of the method: as §1

[32] = target: Fuc(a1-3)[Gal(b1-4)]GlcNAc
Summary of the method: as §1

[33] = target: Fuc(a1-3)[Gal(b1-4)]GlcNAc(b1-2)Man
Summary of the method: as §1

[34] = target: Fuc(a1-3)[Gal(b1-4)]GlcNAc(b1-2)Man(a1-3)[Fuc(a1-3)[Gal(b1-4)]GlcNAc(b1-2)Man(a1-6)]Man(b1-4)GlcNAc(b1-4)GlcNAc
Summary of the method: as §1

[35] = target: Fuc(a1-3)[Gal(b1-4)]GlcNAc(b1-2)Man(a1-3)[Fuc(a1-3)[Gal(b1-4)]GlcNAc(b1-2)Man(a1-6)]Man(b1-4)GlcNAc(b1-4)[Fuc(a1-6)]GlcNAc
Summary of the method: as §1

[36] = target: Fuc(a1-3)[Gal(b1-4)]GlcNAc(b1-3)Gal(b1-3)[Fuc(a1-4)]GlcNAc
Summary of the method: as §1

B1: GS7807F-bth-514-18-514 (Bacteroides thetaiotaomicron) (protein)
chain: AGSCTGNFEEYNTNQFQIHEADPSTLMKSMIETIVNIQQNDSQMMDQMVGQLGGYLTCANVWSGTNFGTFNQSDAWNAGPWNTNFEKIYGNFFQIQEATNESGHYYAFARMIRAITMLRVADCYGPMPYSQVKKGNFYVAYDTEEQVYKNIMEDFASAANVLYNYYKDTNGNAPLASNDPVFSGNYANWARLANSMRLRVAIRISTAYPEMAKENAEAAASHEAGLIEANNDNAMMDCGSQTNPYQLAAVSWGDLRVNANIVDYMNGYGDPRMSKYFNHSTFTGHTQEYVGMRSGEDGFAKSDVAGYSIPAITGTSKLLVFCAAETAFLRAEGKLKNWSVGNKSAKEYYEEGIKLSMEQYGTTMPDNYLTNTEKPTVSHNNDPRGHAYTISNTVAVAWNDNNEEENLQRIITQKWIANYPLGLEAWAEYRRTGYPELYPCIDNLSPSGVDSKRGMRRLRFPYTEVQNNHSNYQQGVSYLKNGGPDNEATDLSWGKTN
glycan array binding signal (z-score) [1]: -0.741
glycan array binding signal (z-score) [2]: -0.338
glycan array binding signal (z-score) [3]: 0.838
glycan array binding signal (z-score) [4]: -0.607
glycan array binding signal (z-score) [5]: -0.866
glycan array binding signal (z-score) [6]: -0.626
glycan array binding signal (z-score) [7]: 3.01
glycan array binding signal (z-score) [8]: 0.545
glycan array binding signal (z-score) [9]: -0.251
glycan array binding signal (z-score) [10]: -0.058
glycan array binding signal (z-score) [11]: -0.111
glycan array binding signal (z-score) [12]: 0.079
glycan array binding signal (z-score) [13]: -0.844
glycan array binding signal (z-score) [14]: -0.684
glycan array binding signal (z-score) [15]: 0.416
glycan array binding signal (z-score) [16]: -0.854
glycan array binding signal (z-score) [17]: -0.891
glycan array binding signal (z-score) [18]: -0.859
glycan array binding signal (z-score) [19]: -0.825
glycan array binding signal (z-score) [20]: 1.47
glycan array binding signal (z-score) [21]: 0.216
glycan array binding signal (z-score) [22]: -0.908
glycan array binding signal (z-score) [23]: 1.24
glycan array binding signal (z-score) [24]: -0.428
glycan array binding signal (z-score) [25]: -0.118
glycan array binding signal (z-score) [26]: -0.866
glycan array binding signal (z-score) [27]: 0.161
glycan array binding signal (z-score) [28]: 1.09
glycan array binding signal (z-score) [29]: 2.23
glycan array binding signal (z-score) [30]: 3.2
glycan array binding signal (z-score) (Fuc(a1-3)GlcNAc): -0.58
glycan array binding signal (z-score) [31]: 0.783
glycan array binding signal (z-score) [32]: -0.617
glycan array binding signal (z-score) [33]: -0.562
glycan array binding signal (z-score) [34]: 0.769
glycan array binding signal (z-score) [35]: 2.25
glycan array binding signal (z-score) [36]: -0.42

Source: the supplement of paper PMC8728848
